Data published in article PMC7615710.
Results are given in words; binding and its absence hold for the method and conditions named. In cells and extracts the contact can be indirect. Some results given as binding are weak or reduced against the parent protein; the word gives no strength.

Chains of the proteins cited; added tags and fusions are not shown. Residues count along the entry.
UniProt Q99IB8, residues 1977-2442: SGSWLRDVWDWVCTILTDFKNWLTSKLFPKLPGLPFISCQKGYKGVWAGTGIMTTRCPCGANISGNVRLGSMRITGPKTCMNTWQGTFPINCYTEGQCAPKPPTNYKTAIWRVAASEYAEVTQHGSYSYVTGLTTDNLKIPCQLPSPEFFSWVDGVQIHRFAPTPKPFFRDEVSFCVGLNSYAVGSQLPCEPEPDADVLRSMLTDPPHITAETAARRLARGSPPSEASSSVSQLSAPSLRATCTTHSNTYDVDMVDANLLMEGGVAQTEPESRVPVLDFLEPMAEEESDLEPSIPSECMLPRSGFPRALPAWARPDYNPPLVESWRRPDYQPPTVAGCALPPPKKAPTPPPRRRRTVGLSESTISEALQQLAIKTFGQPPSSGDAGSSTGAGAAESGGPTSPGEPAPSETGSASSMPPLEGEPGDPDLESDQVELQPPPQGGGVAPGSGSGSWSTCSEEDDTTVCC

Molecular target: HCV NS5A expressed from the subgenomic replicon N17/JFH (HCV (replicon N17/JFH)) (UniProt Q99IB8)
Assay: co-IP

B1: ASPP2 (apoptosis-stimulating protein of p53 2), endogenous (protein, UniProt Q13625 1-1128)
chain: MMPMFLTVYLSNNEQHFTEVPVTPETICRDVVDLCKEPGESDCHLAEVWCGSERPVADNERMFDVLQRFGSQRNEVRFFLRHERPPGRDIVSGPRSQDPSLKRNGVKVPGEYRRKENGVNSPRMDLTLAELQEMASRQQQQIEAQQQLLATKEQRLKFLKQQDQRQQQQVAEQEKLKRLKEIAENQEAKLKKVRALKGHVEQKRLSNGKLVEEIEQMNNLFQQKQRELVLAVSKVEELTRQLEMLKNGRIDSHHDNQSAVAELDRLYKELQLRNKLNQEQNAKLQQQRECLNKRNSEVAVMDKRVNELRDRLWKKKAALQQKENLPVSSDGNLPQQAASAPSRVAAVGPYIQSSTMPRMPSRPELLVKPALPDGSLVIQASEGPMKIQTLPNMRSGAASQTKGSKIHPVGPDWSPSNADLFPSQGSASVPQSTGNALDQVDDGEVPLREKEKKVRPFSMFDAVDQSNAPPSFGTLRKNQSSEDILRDAQVANKNVAKVPPPVPTKPKQINLPYFGQTNQPPSDIKPDGSSQQLSTVVPSMGTKPKPAGQQPRVLLSPSIPSVGQDQTLSPGSKQESPPAAAVRPFTPQPSKDTLLPPFRKPQTVAASSIYSMYTQQQAPGKNFQQAVQSALTKTHTRGPHFSSVYGKPVIAAAQNQQQHPENIYSNSQGKPGSPEPETEPVSSVQENHENERIPRPLSPTKLLPFLSNPYRNQSDADLEALRKKLSNAPRPLKKRSSITEPEGPNGPNIQKLLYQRTTIAAMETISVPSYPSKSASVTASSESPVEIQNPYLHVEPEKEVVSLVPESLSPEDVGNASTENSDMPAPSPGLDYEPEGVPDNSPNLQNNPEEPNPEAPHVLDVYLEEYPPYPPPPYPSGEPEGPGEDSVSMRPPEITGQVSLPPGKRTNLRKTGSERIAHGMRVKFNPLALLLDSSLEGEFDLVQRIIYEVDDPSLPNDEGITALHNAVCAGHTEIVKFLVQFGVNVNAADSDGWTPLHCAASCNNVQVCKFLVESGAAVFAMTYSDMQTAADKCEEMEEGYTQCSQFLYGVQEKMGIMNKGVIYALWDYEPQNDDELPMKEGDCMTIIHREDEDEIEWWWARLNDKEGYVPRNLLGLYPRIKPRQRSLA
With B1 the binding was “binds”.
